In PubChem BioAssay AID504444 (National Center for Advancing Translational Sciences (NCATS), 2011):
Screen size: about 360,000 compounds; about 7,500 (2.1%) were called active. Inconclusive means that the source gave no clear call. Such entries were picked first, then a sample of the others. The call rests on the fitted dose curve; in most records, active means well fitted inhibition curve with a large enough effect; inconclusive means small, poorly fitted or top-dose-only effect, or effect the other way; inactive means flat fitted curve, though single readings scatter. Potencies beside an inconclusive call are fits to weak or partial responses and may not hold up.

Test: Nrf2 qHTS screen for inhibitors; further: nearly all actives have a fitted effect of over 60% in size
Conditions: A549 ARE-Fluc reporter, luciferase luminescence, 18-24 h; series mostly up to 46 µM
Method in brief: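 Quantitative HTS in A549 cells stably bearing an antioxidant response element-firefly luciferase construct. Inhibition of Nrf2-driven transcription was scored by luminescence after 18-24 h of compound exposure at 37 °C.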
Potency means the concentration at half of the fitted maximal effect.

Structure (SMILES) | Potency
O=C(O)CCCSCC(=O)Nc1ccccc1 | inconclusive: 6.51 µM [activator, single point]
COc1cc(-c2nc(CN3CCCN(C(=O)c4ccco4)CC3)c(C)o2)ccc1F | inconclusive: 18.4 µM [falling, single point]
Cc1cc(S(=O)(=O)Nc2ccc3oc4c(c3c2)CCCC4)ccc1Cl | inconclusive: 29.1 µM [falling, partial curve, poor fit]
CCC(=O)Oc1ccc2c(c1)O/C(=C\c1ccco1)C2=O | inactive
COc1cc2c(C(=O)N3CCN(c4cccc(Cl)c4)CC3)cn(CC(C)C)c(=O)c2cc1OC | inconclusive: 29.1 µM [falling, single point]
COc1ccc(CCNC(=O)C(=O)NCC2CCCN2S(=O)(=O)c2ccc(OC)cc2)cc1 (stereo not given) | inconclusive: 29.1 µM [falling, partial curve, poor fit]
Cc1ccccc1N1CCN(C2CCCN(C(=O)CCC(F)(F)F)C2)CC1 (stereo not given) | inactive
Cc1ccc(Cl)cc1N1CCN(C(=O)c2noc3c2CCCC3)CC1 | inactive
O=C(c1cn(-c2ccccc2)nc1-c1cccs1)N1CCN(c2ccccc2)CC1 | inconclusive: 16.4 µM [falling, single point]
O=S(=O)(Nc1cccc2ccccc12)c1ccccc1 | inactive
CCOc1ccc(NC(=O)c2ccc(OC)cc2)cc1 | inconclusive: 11.6 µM [activator, partial curve, poor fit]
CCOC(=O)c1ccc(N2N=C(C)/C(=C/C=C/c3ccco3)C2=O)cc1 | inactive
CCc1ccccc1NC(=O)CN(C)Cc1c(O)ccc2ccccc12 | inactive
O=C(NCCc1c[nH]c2ccccc12)C(=O)NCC1OCCCN1S(=O)(=O)c1ccc(F)cc1 (stereo not given) | inconclusive: 29.1 µM [falling, single point]
Cc1cccc(OCc2nnc(SCCC(=O)O)n2-c2ccccc2)c1 | inconclusive: 1.64 µM [falling, partial curve, poor fit]
COc1cc(C2C(C(=O)Nc3ccccc3C)=C(C)Nc3nc(SCc4cc(C)ccc4C)nn32)ccc1O (stereo not given) | active: 16.4 µM
CCN(CC(=O)c1c(N)n(C)c(=O)n(C)c1=O)c1cccc2ccccc12 | inconclusive: 0.058 µM [falling, partial curve, poor fit]
CC1CCCC(C)N1C(=O)COC(=O)c1ccc2c(c1)OCO2 (stereo not given) | inconclusive: 18.4 µM [activator, partial curve, poor fit]
CC(C)C1(C)NC(c2ccc3c(c2)OCO3)=CC(c2ccccc2O)N1 (stereo not given) | inactive
Cc1cccc(Cn2cc(SCC(=O)Nc3nccs3)c3ccccc32)c1 | inactive
CCCOc1ccc(NC(=O)C2CC(=O)N/C(=N/N=C(\C)CCc3ccc4c(c3)OCO4)S2)cc1 (stereo not given) | inactive
CCOC(=O)c1c(NC(=O)c2cc3n(n2)C(C(F)(F)F)CC(c2cccs2)N3)sc(C)c1C (stereo not given) | inactive
Brc1cccc(-c2nnn3c2nc(N2CCCCC2)c2ccccc23)c1 | inactive

At a glance, part of the list above.
Structure (SMILES) | Potency
O=S(=O)(Nc1cccc2ccccc12)c1ccccc1 | inactive
CCOc1ccc(NC(=O)c2ccc(OC)cc2)cc1 | inconclusive: 11.6 µM [activator, partial curve, poor fit]
CCOC(=O)c1ccc(N2N=C(C)/C(=C/C=C/c3ccco3)C2=O)cc1 | inactive
CCc1ccccc1NC(=O)CN(C)Cc1c(O)ccc2ccccc12 | inactive
O=C(NCCc1c[nH]c2ccccc12)C(=O)NCC1OCCCN1S(=O)(=O)c1ccc(F)cc1 (stereo not given) | inconclusive: 29.1 µM [falling, single point]
Cc1cccc(OCc2nnc(SCCC(=O)O)n2-c2ccccc2)c1 | inconclusive: 1.64 µM [falling, partial curve, poor fit]
COc1cc(C2C(C(=O)Nc3ccccc3C)=C(C)Nc3nc(SCc4cc(C)ccc4C)nn32)ccc1O (stereo not given) | active: 16.4 µM
CCN(CC(=O)c1c(N)n(C)c(=O)n(C)c1=O)c1cccc2ccccc12 | inconclusive: 0.058 µM [falling, partial curve, poor fit]
CC1CCCC(C)N1C(=O)COC(=O)c1ccc2c(c1)OCO2 (stereo not given) | inconclusive: 18.4 µM [activator, partial curve, poor fit]

Remaining list, next part

Structure (SMILES) | Potency
CCCN1CCc2c(sc(NC(=O)Cc3ccc(F)cc3)c2C(N)=O)C1 | inactive
CCC1CCCCN1C(=O)COc1ccc(N(C)S(=O)(=O)c2ccc(C)cc2)cc1 (stereo not given) | inconclusive: 29.1 µM [falling, single point]
Cc1ccc2nc3c(c(Nc4ccc(C)c(C)c4)c2c1)CCC3 | inconclusive: 23.1 µM [falling, single point]
COc1cc(OC)c(N(C)S(=O)(=O)c2cccc(C(=O)OCc3c(C)noc3C)c2)cc1Cl | inconclusive: 18.4 µM [falling, single point]
O=[N+]([O-])c1ccc(N2CCCCC2)cc1NCCOc1ccccc1 | inactive
O=C(CNS(=O)(=O)c1cccs1)N1CCN(c2ccccc2F)CC1 | inconclusive: 16.4 µM [activator, partial curve, poor fit]
CC(C)(C)c1ccc(NC(=S)NCc2cccnc2)cc1 | inconclusive: 29.1 µM [falling, single point]
Cc1ccc(F)cc1S(=O)(=O)N1CCC(c2nc3ccccc3s2)CC1 | inconclusive: 29.1 µM [falling, single point]
Cc1ccc(C)c(N2CCN(S(=O)(=O)c3ccc4c(c3)NC(=O)CO4)CC2)c1 | inconclusive: 29.1 µM [falling, single point]
Cc1ccc(NC(=O)c2cc(-c3ccccc3)nn2-c2ccccc2)c(Br)c1 | inconclusive: 20.6 µM [falling, single point]
Cc1cc(C(=O)CSc2nnnn2C)c(C)n1Cc1ccco1 | inconclusive: 25.9 µM [activator, single point]
Fc1ccccc1N1CCN(c2ncnc3c2nc2n3CCCC2)CC1 | active: 20.6 µM
COc1ccc(CCNC(=O)CCCCn2c(=O)c3ccccc3n(Cc3ccccc3)c2=O)cc1OC | inactive
CCN(C(=O)c1ccco1)c1nnc(-c2cccnc2)s1 | inconclusive: 6.51 µM [activator, partial curve]
O=C(NCc1ccco1)c1ccc(COc2cccc3ccccc23)cc1 | active: 16.4 µM
Cc1c(C(=O)O)cccc1-c1ccc(/C=N/Nc2ccc(Br)cc2)o1 | inactive
c1ccc(-c2nc3ccccc3c3nncn23)cc1 | inconclusive: 4.11 µM [activator, single point]
C=CCn1c(=O)c2c(nc3n2CC(C)CN3c2cccc(OC)c2)n(C)c1=O (stereo not given) | inconclusive: 2.91 µM [falling, full curve]
Cc1ccc(C(=O)Nc2cccc(C(=O)N/N=C/c3ccc(O)cc3)c2)cc1 | inconclusive: 23.1 µM [activator, partial curve, poor fit]
CCn1cc2nc(SCC(=O)Nc3ccc(OC)cc3OC)n(Cc3ccc(Cl)cc3)c(=O)c2n1 | inconclusive: 9.2 µM [falling, partial curve, poor fit]
Cc1ccc(-c2nnn(CC(=O)N(c3ccccc3)C(C(=O)NC(C)(C)C)c3cccs3)n2)o1 (stereo not given) | inconclusive: 20.6 µM [falling, single point]
COc1ccc2c(c1)[C@H]1[C@H](CO2)[C@H](c2ccccc2)[C@]2(C)C(=O)Nc3ccc(Br)cc3C(=O)N12 | inconclusive: 6.51 µM [activator, partial curve]
